Assay results published in paper doi:10.1101/2022.01.27.22269972.
Results are given in words; binding and its absence hold for the method and conditions named. In cells and extracts the contact can be indirect. Here binding means that the protein was enriched with, or labelled near, the bait; the list need not be complete. For some assays here: No binding means not detected with the bait. Where a sequence is shown, tags or fusion partners need not be part of it.

By UniProt entry, the sequences of proteins in these tests, tags left out. Residues count along the entry.
UniProt P00367, residues 54-558: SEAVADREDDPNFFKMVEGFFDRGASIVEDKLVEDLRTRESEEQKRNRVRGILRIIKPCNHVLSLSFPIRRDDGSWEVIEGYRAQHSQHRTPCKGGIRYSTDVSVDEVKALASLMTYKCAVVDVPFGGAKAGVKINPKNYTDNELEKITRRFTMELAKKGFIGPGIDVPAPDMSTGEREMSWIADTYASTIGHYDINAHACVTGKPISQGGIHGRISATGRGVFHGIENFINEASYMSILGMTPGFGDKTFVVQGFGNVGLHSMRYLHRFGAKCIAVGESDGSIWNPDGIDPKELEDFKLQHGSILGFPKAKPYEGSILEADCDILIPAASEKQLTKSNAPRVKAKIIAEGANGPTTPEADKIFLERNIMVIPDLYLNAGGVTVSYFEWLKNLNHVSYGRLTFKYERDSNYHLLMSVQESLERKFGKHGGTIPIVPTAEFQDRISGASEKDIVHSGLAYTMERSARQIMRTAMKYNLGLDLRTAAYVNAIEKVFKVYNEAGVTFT

T1: MMAB, C-terminally flag-tagged (human) (UniProt Q96EY8)
T1 sequence: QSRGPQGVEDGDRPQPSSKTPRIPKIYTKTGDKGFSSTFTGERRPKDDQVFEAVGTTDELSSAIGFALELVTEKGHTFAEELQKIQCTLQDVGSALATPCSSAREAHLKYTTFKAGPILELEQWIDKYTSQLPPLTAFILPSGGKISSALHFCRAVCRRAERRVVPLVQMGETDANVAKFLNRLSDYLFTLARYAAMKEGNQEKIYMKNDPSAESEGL

T2: VLCAD, C-terminally flag-tagged (UniProt P49748)
T2 sequence: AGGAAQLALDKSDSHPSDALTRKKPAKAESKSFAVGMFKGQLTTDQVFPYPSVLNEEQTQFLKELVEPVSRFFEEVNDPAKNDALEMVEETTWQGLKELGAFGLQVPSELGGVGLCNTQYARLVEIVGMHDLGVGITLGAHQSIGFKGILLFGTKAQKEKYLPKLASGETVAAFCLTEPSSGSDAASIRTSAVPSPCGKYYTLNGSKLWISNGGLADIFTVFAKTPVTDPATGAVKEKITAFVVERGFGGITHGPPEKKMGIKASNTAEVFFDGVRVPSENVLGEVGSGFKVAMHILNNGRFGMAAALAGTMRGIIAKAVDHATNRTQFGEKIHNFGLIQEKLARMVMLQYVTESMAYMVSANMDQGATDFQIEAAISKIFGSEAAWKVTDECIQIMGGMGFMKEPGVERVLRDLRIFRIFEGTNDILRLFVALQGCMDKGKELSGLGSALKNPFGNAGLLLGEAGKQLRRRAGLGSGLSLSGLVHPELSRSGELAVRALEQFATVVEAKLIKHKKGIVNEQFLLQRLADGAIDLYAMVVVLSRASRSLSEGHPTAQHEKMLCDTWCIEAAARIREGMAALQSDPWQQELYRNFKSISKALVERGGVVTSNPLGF

T3: methylmalonyl-CoA mutase (MMUT), C-terminally flag-tagged (human) (UniProt P22033)
T3 sequence: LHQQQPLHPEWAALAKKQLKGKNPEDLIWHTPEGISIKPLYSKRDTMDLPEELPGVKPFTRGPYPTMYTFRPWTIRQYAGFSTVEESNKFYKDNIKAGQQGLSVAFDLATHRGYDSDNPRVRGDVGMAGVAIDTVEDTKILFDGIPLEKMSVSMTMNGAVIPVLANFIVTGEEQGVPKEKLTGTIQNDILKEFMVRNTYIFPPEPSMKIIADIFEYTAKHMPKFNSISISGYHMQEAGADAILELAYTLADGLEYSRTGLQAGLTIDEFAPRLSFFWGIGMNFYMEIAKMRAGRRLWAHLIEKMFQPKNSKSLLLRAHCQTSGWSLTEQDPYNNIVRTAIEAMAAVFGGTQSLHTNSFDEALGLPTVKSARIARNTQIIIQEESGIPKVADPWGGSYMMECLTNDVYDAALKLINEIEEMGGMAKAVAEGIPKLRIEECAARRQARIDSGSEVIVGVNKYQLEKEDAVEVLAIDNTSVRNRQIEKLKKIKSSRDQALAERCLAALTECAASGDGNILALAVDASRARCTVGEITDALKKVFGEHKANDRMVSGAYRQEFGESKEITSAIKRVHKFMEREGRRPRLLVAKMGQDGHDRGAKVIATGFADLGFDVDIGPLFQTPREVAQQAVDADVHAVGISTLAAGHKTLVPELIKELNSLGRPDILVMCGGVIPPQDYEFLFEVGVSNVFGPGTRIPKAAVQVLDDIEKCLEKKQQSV

T4: MCEE, C-terminally flag-tagged (UniProt Q96PE7)
T4 sequence: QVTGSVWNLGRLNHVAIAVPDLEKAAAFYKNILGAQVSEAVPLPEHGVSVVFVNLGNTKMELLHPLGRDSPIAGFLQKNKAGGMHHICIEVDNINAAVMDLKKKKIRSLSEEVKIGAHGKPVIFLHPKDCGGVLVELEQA


Assays:
Experiment in all cases: affinity purification with mass spectrometry
[1] = molecular target: T1, MMAB, C-terminally flag-tagged (human)
[2] = molecular target: T2, VLCAD, C-terminally flag-tagged
[3] = molecular target: T3, methylmalonyl-CoA mutase (MMUT), C-terminally flag-tagged (human)
[4] = molecular target: T4, MCEE, C-terminally flag-tagged

binding [1] | binding [2] | binding [3] | binding [4] | Molecule
binds | no binding | binds | binds | glutamate dehydrogenase (GLUD1) (from UniProt P00367 54-558) (enzyme)
binds | no binding | binds | binds | GOT2 (enzyme, UniProt P00505 30-430) SSWWTHVEMGPPDPILGVTEAFKRDTNSKKMNLGVGAYRDDNGKPYVLPSVRKAEAQIAAKNLDKEYLPIGGLAEFCKASAELALGENSEVLKSGRFVTVQTISGTGALRIGASFLQRFFKFSRDVFLPKPTWGNHTPIFRDAGMQLQGYRYYDPKTCGFDFTGAVEDISKIPEQSVLLLHACAHNPTGVDPRPEQWKEIATVVKKRNLFAFFDMAYQGFASGDGDKDAWAVRHFIEQGINVCLCQSYAKNMGLYGERVGAFTMVCKDADEAKRVESQLKILIRPMYSNPPLNGARIAAAILNTPDLRKQWLQEVKVMADRIIGMRTQLVSNLKKEGSTHNWQHITDQIGMFCFTGLKPEQVERLIKEFSIYMTKDGRISVAGVTSSNVGYLAHAIHQVTK
